Test results reported in the supplement of paper PMC10849652.
This is one part of the list.

Chains of the proteins cited; added tags and fusions are not shown. Lines headed by an entry give the natural chain unless they say otherwise; changes in a name come on top.
UniProt P63151: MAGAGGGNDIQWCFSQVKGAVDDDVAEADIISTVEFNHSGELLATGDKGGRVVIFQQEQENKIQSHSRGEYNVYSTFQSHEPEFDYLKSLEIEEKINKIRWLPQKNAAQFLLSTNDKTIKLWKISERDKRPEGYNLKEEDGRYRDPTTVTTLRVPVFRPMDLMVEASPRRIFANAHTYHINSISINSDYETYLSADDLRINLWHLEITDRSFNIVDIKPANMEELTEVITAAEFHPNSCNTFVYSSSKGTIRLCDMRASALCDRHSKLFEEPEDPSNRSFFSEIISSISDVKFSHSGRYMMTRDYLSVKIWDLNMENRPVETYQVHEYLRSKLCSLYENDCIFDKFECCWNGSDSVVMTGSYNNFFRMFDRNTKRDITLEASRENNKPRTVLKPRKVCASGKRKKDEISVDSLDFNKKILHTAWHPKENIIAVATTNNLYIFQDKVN
UniProt P30041: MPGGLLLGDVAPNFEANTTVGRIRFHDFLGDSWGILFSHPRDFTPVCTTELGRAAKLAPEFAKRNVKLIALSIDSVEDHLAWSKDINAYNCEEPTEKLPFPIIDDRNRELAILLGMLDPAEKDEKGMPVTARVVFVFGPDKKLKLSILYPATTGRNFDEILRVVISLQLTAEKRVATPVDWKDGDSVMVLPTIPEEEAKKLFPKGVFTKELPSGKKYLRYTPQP
UniProt Q9UMS4: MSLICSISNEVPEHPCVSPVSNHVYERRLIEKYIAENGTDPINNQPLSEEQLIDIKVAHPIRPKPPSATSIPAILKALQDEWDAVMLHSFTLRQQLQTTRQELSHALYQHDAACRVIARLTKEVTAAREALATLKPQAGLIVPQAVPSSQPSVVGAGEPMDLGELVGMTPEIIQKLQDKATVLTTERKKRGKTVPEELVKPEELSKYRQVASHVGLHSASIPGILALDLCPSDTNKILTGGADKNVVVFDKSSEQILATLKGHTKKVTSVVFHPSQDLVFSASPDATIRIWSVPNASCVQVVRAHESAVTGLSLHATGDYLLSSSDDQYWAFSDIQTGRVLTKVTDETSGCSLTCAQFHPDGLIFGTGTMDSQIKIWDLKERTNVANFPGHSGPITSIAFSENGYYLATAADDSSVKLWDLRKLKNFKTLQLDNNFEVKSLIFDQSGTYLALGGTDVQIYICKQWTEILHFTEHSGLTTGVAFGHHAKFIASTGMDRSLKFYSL
UniProt Q6IN85: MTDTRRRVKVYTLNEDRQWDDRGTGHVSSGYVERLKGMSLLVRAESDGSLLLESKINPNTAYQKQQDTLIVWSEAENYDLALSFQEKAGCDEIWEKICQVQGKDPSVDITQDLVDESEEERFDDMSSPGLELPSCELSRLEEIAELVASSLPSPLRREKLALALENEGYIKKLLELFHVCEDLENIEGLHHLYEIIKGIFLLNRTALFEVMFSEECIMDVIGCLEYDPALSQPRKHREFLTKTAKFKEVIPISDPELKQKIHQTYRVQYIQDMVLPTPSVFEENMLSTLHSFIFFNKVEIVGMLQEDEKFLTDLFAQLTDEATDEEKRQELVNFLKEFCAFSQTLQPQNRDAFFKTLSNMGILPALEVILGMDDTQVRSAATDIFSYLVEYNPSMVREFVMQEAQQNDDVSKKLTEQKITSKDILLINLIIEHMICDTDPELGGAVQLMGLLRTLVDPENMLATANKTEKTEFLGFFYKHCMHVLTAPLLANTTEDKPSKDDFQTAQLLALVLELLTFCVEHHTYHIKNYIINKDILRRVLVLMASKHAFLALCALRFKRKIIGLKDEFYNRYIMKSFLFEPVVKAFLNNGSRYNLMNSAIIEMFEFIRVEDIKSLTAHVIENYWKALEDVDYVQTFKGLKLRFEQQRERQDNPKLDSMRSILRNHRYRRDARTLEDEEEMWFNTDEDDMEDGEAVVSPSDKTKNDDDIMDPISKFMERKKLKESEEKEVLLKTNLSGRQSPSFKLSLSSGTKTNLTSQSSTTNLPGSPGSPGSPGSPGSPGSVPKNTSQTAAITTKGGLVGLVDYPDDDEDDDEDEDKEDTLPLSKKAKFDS
UniProt O43172: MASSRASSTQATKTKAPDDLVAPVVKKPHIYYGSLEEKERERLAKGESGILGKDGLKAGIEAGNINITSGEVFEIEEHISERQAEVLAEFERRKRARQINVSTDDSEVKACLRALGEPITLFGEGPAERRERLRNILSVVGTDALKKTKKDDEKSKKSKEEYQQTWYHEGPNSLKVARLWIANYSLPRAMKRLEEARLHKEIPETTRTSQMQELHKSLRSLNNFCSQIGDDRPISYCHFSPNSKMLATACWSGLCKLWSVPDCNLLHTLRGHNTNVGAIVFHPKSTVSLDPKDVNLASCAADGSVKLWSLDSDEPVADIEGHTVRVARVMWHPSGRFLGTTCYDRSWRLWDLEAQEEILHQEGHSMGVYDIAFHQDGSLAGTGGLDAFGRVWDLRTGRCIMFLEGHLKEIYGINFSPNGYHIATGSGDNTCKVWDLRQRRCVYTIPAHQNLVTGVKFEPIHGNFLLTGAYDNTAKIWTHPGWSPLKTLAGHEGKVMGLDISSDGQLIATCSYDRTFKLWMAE
UniProt O60828: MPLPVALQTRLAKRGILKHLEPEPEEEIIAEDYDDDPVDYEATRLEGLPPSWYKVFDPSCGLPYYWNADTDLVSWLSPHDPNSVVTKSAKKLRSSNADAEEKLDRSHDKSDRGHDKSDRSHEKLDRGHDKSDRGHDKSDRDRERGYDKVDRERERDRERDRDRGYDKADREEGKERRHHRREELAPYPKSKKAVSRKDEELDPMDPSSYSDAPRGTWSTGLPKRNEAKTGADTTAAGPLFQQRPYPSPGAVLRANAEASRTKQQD
UniProt O75170: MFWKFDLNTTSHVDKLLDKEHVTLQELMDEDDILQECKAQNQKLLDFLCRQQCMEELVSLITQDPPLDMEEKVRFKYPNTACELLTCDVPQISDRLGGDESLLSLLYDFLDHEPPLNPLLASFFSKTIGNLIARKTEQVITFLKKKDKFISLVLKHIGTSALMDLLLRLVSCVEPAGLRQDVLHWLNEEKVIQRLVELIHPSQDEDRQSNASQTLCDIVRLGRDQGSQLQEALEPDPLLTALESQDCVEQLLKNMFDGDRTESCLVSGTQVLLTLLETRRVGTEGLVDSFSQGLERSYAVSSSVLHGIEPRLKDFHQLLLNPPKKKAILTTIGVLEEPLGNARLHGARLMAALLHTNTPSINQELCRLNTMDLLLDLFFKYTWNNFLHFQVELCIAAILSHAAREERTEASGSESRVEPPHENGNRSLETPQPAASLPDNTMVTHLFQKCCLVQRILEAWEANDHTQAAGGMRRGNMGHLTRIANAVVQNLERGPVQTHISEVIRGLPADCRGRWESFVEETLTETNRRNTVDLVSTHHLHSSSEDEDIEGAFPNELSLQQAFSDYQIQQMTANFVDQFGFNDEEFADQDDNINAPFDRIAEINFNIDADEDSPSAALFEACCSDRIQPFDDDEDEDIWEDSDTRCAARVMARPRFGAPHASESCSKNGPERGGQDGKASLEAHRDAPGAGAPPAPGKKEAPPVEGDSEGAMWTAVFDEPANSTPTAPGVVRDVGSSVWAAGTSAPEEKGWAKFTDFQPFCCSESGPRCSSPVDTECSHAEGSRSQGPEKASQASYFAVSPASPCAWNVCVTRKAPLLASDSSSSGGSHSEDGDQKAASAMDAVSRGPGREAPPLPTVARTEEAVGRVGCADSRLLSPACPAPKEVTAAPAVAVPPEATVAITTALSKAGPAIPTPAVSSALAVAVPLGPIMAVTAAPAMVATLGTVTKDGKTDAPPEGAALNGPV
UniProt P55345: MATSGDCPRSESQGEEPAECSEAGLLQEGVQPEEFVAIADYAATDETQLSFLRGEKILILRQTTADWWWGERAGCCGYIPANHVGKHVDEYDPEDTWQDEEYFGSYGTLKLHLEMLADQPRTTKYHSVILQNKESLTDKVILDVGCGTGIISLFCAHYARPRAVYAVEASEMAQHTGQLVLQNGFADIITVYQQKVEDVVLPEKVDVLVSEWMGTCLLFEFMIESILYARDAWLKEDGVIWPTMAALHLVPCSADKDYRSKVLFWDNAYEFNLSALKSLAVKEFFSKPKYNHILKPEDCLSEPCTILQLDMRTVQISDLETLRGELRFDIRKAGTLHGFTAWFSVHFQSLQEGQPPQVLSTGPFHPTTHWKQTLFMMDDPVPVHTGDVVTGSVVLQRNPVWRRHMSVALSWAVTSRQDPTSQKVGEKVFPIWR
UniProt P78395, whole entry, looked up: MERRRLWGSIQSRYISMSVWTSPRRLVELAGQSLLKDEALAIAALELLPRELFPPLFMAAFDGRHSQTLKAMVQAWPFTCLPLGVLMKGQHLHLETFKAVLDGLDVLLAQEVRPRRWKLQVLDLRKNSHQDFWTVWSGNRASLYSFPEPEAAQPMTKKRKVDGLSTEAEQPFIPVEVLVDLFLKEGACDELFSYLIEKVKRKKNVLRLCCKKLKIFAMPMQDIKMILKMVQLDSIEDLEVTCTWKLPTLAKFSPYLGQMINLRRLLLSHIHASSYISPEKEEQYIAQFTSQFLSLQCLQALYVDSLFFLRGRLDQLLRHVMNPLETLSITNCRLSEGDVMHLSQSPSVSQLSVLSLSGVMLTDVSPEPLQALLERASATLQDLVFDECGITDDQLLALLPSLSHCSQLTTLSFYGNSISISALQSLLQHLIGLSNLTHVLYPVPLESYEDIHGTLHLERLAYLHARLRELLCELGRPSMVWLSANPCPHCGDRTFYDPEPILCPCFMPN
UniProt Q92733: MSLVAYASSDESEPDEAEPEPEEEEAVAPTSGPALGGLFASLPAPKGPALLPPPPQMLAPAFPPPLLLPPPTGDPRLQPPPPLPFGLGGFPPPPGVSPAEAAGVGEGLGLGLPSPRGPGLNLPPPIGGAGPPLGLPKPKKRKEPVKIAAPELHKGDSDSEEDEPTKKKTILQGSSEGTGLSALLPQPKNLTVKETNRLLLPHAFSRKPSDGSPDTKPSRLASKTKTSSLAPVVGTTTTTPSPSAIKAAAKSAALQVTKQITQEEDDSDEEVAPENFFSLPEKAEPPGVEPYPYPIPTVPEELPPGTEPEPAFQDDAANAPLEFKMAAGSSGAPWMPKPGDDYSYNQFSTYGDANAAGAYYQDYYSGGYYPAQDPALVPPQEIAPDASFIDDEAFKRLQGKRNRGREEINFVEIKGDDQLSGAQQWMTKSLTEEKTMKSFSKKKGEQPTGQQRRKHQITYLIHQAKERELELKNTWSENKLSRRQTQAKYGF
UniProt Q9Y6M0: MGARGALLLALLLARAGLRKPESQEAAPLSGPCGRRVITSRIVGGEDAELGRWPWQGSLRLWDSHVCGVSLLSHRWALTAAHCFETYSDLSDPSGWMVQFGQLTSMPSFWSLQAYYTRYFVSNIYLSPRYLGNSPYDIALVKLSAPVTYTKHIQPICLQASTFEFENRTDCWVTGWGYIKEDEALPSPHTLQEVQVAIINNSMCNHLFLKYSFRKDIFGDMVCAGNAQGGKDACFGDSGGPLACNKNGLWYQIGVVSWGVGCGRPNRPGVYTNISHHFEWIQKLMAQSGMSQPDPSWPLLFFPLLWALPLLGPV
UniProt Q9HCU5: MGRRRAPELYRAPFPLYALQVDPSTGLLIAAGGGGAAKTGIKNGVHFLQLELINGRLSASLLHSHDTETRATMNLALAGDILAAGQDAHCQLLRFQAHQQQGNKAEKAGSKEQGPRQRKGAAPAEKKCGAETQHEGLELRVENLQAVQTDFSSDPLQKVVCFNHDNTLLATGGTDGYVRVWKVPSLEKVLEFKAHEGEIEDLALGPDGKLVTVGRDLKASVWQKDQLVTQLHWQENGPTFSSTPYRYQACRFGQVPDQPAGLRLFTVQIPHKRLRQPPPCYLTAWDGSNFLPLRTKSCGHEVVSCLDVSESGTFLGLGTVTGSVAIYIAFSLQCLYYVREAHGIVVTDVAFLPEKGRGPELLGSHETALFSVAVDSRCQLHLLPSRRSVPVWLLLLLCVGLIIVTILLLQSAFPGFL
UniProt Q6NYC8: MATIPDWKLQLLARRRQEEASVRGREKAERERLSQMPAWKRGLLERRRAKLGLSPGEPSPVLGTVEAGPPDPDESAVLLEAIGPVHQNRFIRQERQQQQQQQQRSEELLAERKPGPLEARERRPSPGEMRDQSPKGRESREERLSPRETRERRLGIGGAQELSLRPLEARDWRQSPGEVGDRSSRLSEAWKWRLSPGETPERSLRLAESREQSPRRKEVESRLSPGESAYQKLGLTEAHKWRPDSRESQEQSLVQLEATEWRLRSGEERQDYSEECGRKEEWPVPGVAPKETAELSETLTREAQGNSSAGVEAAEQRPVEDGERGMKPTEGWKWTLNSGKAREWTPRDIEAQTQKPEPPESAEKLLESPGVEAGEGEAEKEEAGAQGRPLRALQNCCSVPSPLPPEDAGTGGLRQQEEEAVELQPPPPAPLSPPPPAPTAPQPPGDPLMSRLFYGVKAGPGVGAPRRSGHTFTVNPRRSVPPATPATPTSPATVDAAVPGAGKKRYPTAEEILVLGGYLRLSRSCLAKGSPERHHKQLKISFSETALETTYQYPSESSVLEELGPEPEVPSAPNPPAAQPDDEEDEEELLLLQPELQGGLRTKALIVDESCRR

Assays:
Assay in all cases: log2 fold change, soluble protein after heating vs DMSO (PISA); higher = thermal stabilisation; K562 cells, 10 uM, 30 min; active = over 0.2 and 3.5 SD of the protein, either way, in both replicates (recomputed)
[1] = compound: CC1=C(C=C(C=C1)NC(=O)C2=CC(=CC=C2)C(C)(C)C#N)NC3=CC4=C(C=C3)N=CN(C4=O)C
How it was run: (§1)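 Values are thermal stability changes relative to control samples and are taken from duplicates. They are stated as log2 fold changes. Before quantification by TMTpro 16plex LC-MS/MS with equalised channel sums, K562 cells at 2×10^6 cells/mL were treated with 10 μM compound for 30 min, heated in aliquots for 3 min across 48°C-58°C, pooled, extracted in PBS with 0.5% NP-40 at 4°C, and centrifuged at 21,000xg for 90 min to give the soluble supernatant.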

[2] = compound: CC1=C(C=C(C=C1)NC(=O)C2=CC(=CC=C2)N(C)C)NC(=O)C3=CC=C(C=C3)O
How it was run: as §1

[3] = compound: CC1=CC=C(C=C1)SC2=C3C=C(SC3=CN=C2)C(=O)N
How it was run: as §1

[4] = compound: CC1=NC(=CC=C1)C2=C(N=C(N2)C(C)(C)C)C3=CC4=NC=CN=C4C=C3
How it was run: as §1

Nexturastat A = compound: CCCCN(Cc1ccc(C(=O)NO)cc1)C(=O)Nc1ccccc1 [Nexturastat A]
How it was run: as §1

vemurafenib = compound: CCCS(=O)(=O)Nc1ccc(F)c(C(=O)c2c[nH]c3ncc(-c4ccc(Cl)cc4)cc23)c1F [vemurafenib]
How it was run: as §1

[5] = compound: CCCS(=O)(=O)Nc1ccc(F)c(C(=O)c2c[nH]c3ncc(Cl)cc23)c1F
How it was run: as §1

[6] = compound: CCCc1cc(C)[nH]c(=O)c1CNC(=O)c1cc(-c2ccnc(N3CCN(C)CC3)c2)cc2c1cnn2C(C)C
How it was run: as §1

givinostat = compound: CCN(CC)Cc1ccc2cc(COC(=O)Nc3ccc(C(=O)NO)cc3)ccc2c1 [givinostat]
How it was run: as §1

barasertib = compound: CCN(CCCOc1ccc2c(Nc3cc(CC(=O)Nc4cccc(F)c4)[nH]n3)ncnc2c1)CCOP(=O)(O)O [barasertib]
How it was run: as §1

[7] = compound: CC[C@@H]1C(=O)N(C)c2cnc(Nc3ccc(C(=O)NC4CCN(C)CC4)cc3OC)nc2N1C1CCCC1
How it was run: as §1

volasertib = compound: CC[C@@H]1C(=O)N(C)c2cnc(Nc3ccc(C(=O)N[C@H]4CC[C@H](N5CCN(CC6CC6)CC5)CC4)cc3OC)nc2N1C(C)C [volasertib]
How it was run: as §1

[8] = compound: CC[C@H](C)N1C=C(C2=C(C=C(C=C21)C3=CN=C(C=C3)N4CCNCC4)C(=O)NCC5=C(C=C(NC5=O)C)C)C
How it was run: as §1

epoxomicin = compound: CC[C@H](C)[C@@H](C(=O)N[C@@H]([C@@H](C)O)C(=O)N[C@@H](CC(C)C)C(=O)[C@]1(CO1)C)NC(=O)[C@H]([C@@H](C)CC)N(C)C(=O)C [epoxomicin]
How it was run: as §1

[9] = compound: CCn1c(C(=O)N(C2CC2)C2CC2)cc2c3c(ncn3C)c(Nc3cc(C)n(C)n3)nc21
How it was run: as §1

[10] = compound: CCn1cc(-c2ccnc3[nH]c(-c4cccc(CN(C)C)c4)cc23)c(-c2ccc(NC(=O)N(C)C)cc2)n1
How it was run: as §1

[11] = compound: CN(C)CC(=O)Nc1ccc2[nH]c(=O)c3ccccc3c2c1
How it was run: as §1

rosiglitazone = compound: CN(CCOC1=CC=C(C=C1)C[C@H]2C(=O)NC(=O)S2)C3=CC=CC=N3 (racemic) [rosiglitazone]
How it was run: as §1

[12] = compound: CN1C2=C(C3=C1C(=O)N(N=C3)CC4=CC(=CC=C4)N)SC(=C2)S(=O)C
How it was run: as §1

[13] = compound: CN1CCC(CNc2ccc3ncc(-c4cccc(OC(F)(F)F)c4)n3n2)CC1
How it was run: as §1

Measured: log2 fold change

PPP2R2A isoform 2 (UniProt P63151)
inactive: [1] -0.005 | [2] 0.004 | [3] 0.002 | [4] 0.013 | Nexturastat A -0.008 | vemurafenib 0.001 | [5] 0.043 | [6] -0.008 | givinostat 0.021 | barasertib -0.017 | [7] 0.01 | volasertib 0.014 | [8] -0.019 | epoxomicin 0.034 | [9] -0.006 | [10] -0.041 | [11] -0.014 | rosiglitazone 0.003 | [12] -0.074 | [13] 0.016

PPME1 (UniProt Q9Y570)
inactive: [1] -0.007 | [2] -0.008 | [3] 0.012 | [4] 0.033 | Nexturastat A -0.062 | vemurafenib 0.006 | [5] 0.057 | [6] -0.019 | givinostat -0.019 | barasertib 0.008 | [7] 0.001 | volasertib -0.092 | [8] 0.017 | epoxomicin 0.019 | [9] -0.024 | [10] -0.007 | [11] -0.037 | rosiglitazone 0.027 | [12] -0.087 | [13] -0.019

PRDX6 (UniProt P30041)
inactive: [1] 0 | [2] -0.002 | [3] 0.036 | [4] 0.038 | Nexturastat A -0.151 | vemurafenib 0.018 | [5] -0.015 | [6] -0.005 | givinostat -0.021 | barasertib 0.019 | [7] -0.034 | volasertib 0.123 | [8] 0.006 | epoxomicin -0.02 | [9] 0.032 | [10] -0.009 | [11] 0.022 | rosiglitazone 0.035 | [12] -0.078 | [13] -0.022

PRPF19 (UniProt Q9UMS4)
inactive: [1] -0.012 | [2] 0.02 | [3] -0.011 | [4] 0.015 | Nexturastat A -0.073 | vemurafenib -0.034 | [5] -0.028 | [6] -0.109 | givinostat -0.027 | barasertib -0.046 | [7] 0.093 | volasertib 0.132 | [8] -0.055 | epoxomicin -0.036 | [9] 0.024 | [10] 0.034 | [11] -0.038 | rosiglitazone -0.034 | [12] -0.044 | [13] 0.105

PPP4R3A (UniProt Q6IN85)
inactive: [1] -0.105 | [2] -0.033 | [3] 0.01 | [4] 0.007 | Nexturastat A -0.041 | vemurafenib -0.004 | [5] 0.005 | [6] -0.066 | givinostat 0.022 | barasertib 0.047 | [7] 0.01 | volasertib -0.112 | [8] 0.015 | epoxomicin -0.006 | [9] -0.005 | [10] 0 | [11] -0.017 | rosiglitazone -0.001 | [12] -0.074 | [13] -0.008

PRPF4 (UniProt O43172)
inactive: [1] -0.027 | [2] -0.049 | [3] -0.035 | [4] 0.022 | Nexturastat A 0.061 | vemurafenib -0.022 | [5] 0.043 | [6] 0.004 | givinostat 0.024 | barasertib 0.005 | [7] -0.006 | volasertib -0.098 | [8] 0.02 | epoxomicin -0.012 | [9] -0.023 | [10] -0.041 | [11] 0.034 | rosiglitazone 0.004 | [12] 0.007 | [13] -0.03

PQBP1 (UniProt O60828)
inactive: [1] -0.051 | [2] 0.005 | [3] -0.045 | [4] -0.024 | Nexturastat A -0.018 | vemurafenib 0.057 | [5] -0.058 | [6] -0.009 | givinostat -0.001 | barasertib -0.024 | [7] 0.014 | volasertib 0.085 | [8] -0.033 | epoxomicin 0.003 | [9] 0.005 | [10] 0.039 | [11] 0.024 | rosiglitazone -0.004 | [12] -0.047 | [13] -0.024

PPP6R2 isoform 5 (UniProt O75170)
inactive: [1] 0.018 | [2] 0.036 | [3] 0.021 | [4] -0.015 | Nexturastat A -0.042 | vemurafenib 0.054 | [5] 0.008 | [6] -0.089 | givinostat 0.018 | barasertib -0.004 | [7] 0.003 | volasertib -0.109 | [8] 0.012 | epoxomicin 0.03 | [9] 0.004 | [10] -0.022 | [11] 0.045 | rosiglitazone 0.043 | [12] -0.055 | [13] -0.129

2 neighbouring records already listed, quoted:
PRPF19 (UniProt Q9UMS4)
inactive: [1] -0.012 | [2] 0.02 | [3] -0.011 | [4] 0.015 | Nexturastat A -0.073 | vemurafenib -0.034 | [5] -0.028 | [6] -0.109 | givinostat -0.027 | barasertib -0.046 | [7] 0.093 | volasertib 0.132 | [8] -0.055 | epoxomicin -0.036 | [9] 0.024 | [10] 0.034 | [11] -0.038 | rosiglitazone -0.034 | [12] -0.044 | [13] 0.105

PPP4R3A (UniProt Q6IN85)
inactive: [1] -0.105 | [2] -0.033 | [3] 0.01 | [4] 0.007 | Nexturastat A -0.041 | vemurafenib -0.004 | [5] 0.005 | [6] -0.066 | givinostat 0.022 | barasertib 0.047 | [7] 0.01 | volasertib -0.112 | [8] 0.015 | epoxomicin -0.006 | [9] -0.005 | [10] 0 | [11] -0.017 | rosiglitazone -0.001 | [12] -0.074 | [13] -0.008

Continued:

PPP4R2 (UniProt Q9NY27)
inactive: [1] -0.041 | [2] -0.006 | [3] -0.046 | [4] -0.029 | Nexturastat A -0.065 | vemurafenib 0.008 | [5] 0.043 | [6] 0.048 | givinostat 0.034 | barasertib 0.026 | [7] -0.016 | volasertib -0.064 | [8] 0.009 | epoxomicin 0.035 | [9] -0.108 | [10] -0.047 | [11] 0.002 | rosiglitazone 0.004 | [12] -0.061 | [13] -0.033

PRMT2 (UniProt P55345)
inactive: [1] 0.289

PRAME (UniProt P78395)
inactive: [1] -0.027 | [2] -0.01 | [3] -0.017 | [4] -0.078 | Nexturastat A 0.132 | vemurafenib 0.069 | [5] 0.137 | [6] 0.015 | givinostat 0.031 | barasertib 0.087 | [7] 0.028 | volasertib -0.144 | [8] 0.137 | epoxomicin 0.128 | [9] 0.037 | [10] -0.011 | [11] 0.015 | rosiglitazone -0.014 | [12] 0.091 | [13] 0.103

PRCC (UniProt Q92733)
inactive: [1] -0.065 | [2] -0.004 | [3] -0.075 | [4] 0.003 | Nexturastat A 0.011 | vemurafenib -0.034 | [5] -0.104 | [6] -0.01 | givinostat -0.012 | barasertib 0.019 | [7] -0.043 | volasertib -0.042 | [8] 0.008 | epoxomicin -0.024 | [9] -0.019 | [10] 0.009 | [11] 0.005 | rosiglitazone -0.021 | [12] 0.005 | [13] 0.004

PRSS21 (UniProt Q9Y6M0)
inactive: [1] -0.041 | [2] -0.03 | [3] 0.019 | [4] 0.056 | Nexturastat A -0.016 | vemurafenib -0.038 | [5] -0.029 | [6] 0.008 | givinostat -0.003 | barasertib -0.027 | [7] 0.005 | volasertib -0.02 | [8] 0 | epoxomicin -0.01 | [9] -0.03 | [10] -0.003 | [11] -0.051 | rosiglitazone -0.004 | [12] -0.041 | [13] 0.066

PREB (UniProt Q9HCU5)
inactive: [1] 0.034 | [2] 0.01 | [3] -0.004 | [4] -0.007 | Nexturastat A -0.037 | vemurafenib -0.018 | [5] -0.02 | [6] 0.022 | givinostat -0.053 | barasertib -0.014 | [7] 0.033 | volasertib -0.031 | [8] 0.033 | epoxomicin -0.01 | [9] -0.057 | [10] -0.027 | [11] -0.009 | rosiglitazone 0.002 | [12] -0.044 | [13] 0.071

PRKDC (UniProt P78527)
inactive: [1] 0.014 | [2] -0.017 | [3] 0.036 | [4] 0.025 | Nexturastat A -0.063 | vemurafenib 0.018 | [5] 0.046 | [6] -0.005 | givinostat -0.005 | barasertib 0.025 | [7] -0.088 | volasertib -0.178 | [8] 0.04 | epoxomicin 0.054 | [9] -0.008 | [10] -0.037 | [11] 0.025 | rosiglitazone 0.027 | [12] -0.073 | [13] -0.059

PPM1F (UniProt P49593)
inactive: [1] 0.023 | [2] -0.033 | [3] -0.036 | [4] 0 | Nexturastat A -0.07 | vemurafenib 0.025 | [5] -0.023 | [6] 0.027 | givinostat 0.011 | barasertib 0.06 | [7] -0.062 | volasertib 0.081 | [8] 0.059 | epoxomicin 0.008 | [9] 0 | [10] -0.098 | [11] -0.002 | rosiglitazone 0.09 | [12] -0.034 | [13] -0.065

PPP1R18 (UniProt Q6NYC8)
inactive: [1] 0.028 | [2] 0.004 | [3] -0.043 | [4] 0.104 | Nexturastat A 0.011 | vemurafenib 0.064 | [5] 0.052 | [6] -0.106 | givinostat 0.009 | barasertib 0.001 | [7] 0.045 | volasertib -0.094 | [8] 0.078 | epoxomicin -0.038 | [9] -0.043 | [10] -0.008 | [11] 0.006 | rosiglitazone 0.042 | [12] -0.036 | [13] 0.077
